Measurements taken from patent US20120039865A1, “IDENTIFICATION OF SORTILIN AS A NEURONAL RECEPTOR FOR THE FRONTOTEMPORAL DEMENTIA PROTEIN, PROGRANULIN” (Yale University, priority 2008, published 2012).
No constants are given. Whether binding was seen depends on the method and setting. For part of these data: Binding seen in cells or lysates may run through a third protein. Some entries that bind do so weakly or less than the wild type.

Sequences of proteins named here, by UniProt entry; tags and fusion partners are left off. A change or cut given only in a name is not applied to a line headed by its entry.
UniProt Q6PHU5: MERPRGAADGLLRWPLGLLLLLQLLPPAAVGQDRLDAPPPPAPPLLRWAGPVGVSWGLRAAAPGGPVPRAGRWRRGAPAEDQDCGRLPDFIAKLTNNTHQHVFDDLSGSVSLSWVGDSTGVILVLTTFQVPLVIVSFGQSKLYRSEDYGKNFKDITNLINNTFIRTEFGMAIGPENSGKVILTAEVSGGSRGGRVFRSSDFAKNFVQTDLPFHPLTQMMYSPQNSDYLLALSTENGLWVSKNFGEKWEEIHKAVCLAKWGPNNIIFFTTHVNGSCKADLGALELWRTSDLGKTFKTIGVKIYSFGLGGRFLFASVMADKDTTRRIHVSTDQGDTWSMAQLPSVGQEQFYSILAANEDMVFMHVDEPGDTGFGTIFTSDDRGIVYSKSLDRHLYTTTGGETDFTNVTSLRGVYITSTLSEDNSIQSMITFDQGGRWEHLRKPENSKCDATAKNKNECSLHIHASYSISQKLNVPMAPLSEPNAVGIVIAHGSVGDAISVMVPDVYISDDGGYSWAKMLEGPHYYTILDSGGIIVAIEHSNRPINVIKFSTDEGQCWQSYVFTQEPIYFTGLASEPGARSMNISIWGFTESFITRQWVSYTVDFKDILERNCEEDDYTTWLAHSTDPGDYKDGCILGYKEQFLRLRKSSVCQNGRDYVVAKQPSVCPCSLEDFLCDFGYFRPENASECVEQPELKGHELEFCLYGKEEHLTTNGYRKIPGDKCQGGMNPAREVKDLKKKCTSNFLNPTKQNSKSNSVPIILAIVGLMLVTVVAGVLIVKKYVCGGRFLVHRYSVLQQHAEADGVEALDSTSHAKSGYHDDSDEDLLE
UniProt P28799: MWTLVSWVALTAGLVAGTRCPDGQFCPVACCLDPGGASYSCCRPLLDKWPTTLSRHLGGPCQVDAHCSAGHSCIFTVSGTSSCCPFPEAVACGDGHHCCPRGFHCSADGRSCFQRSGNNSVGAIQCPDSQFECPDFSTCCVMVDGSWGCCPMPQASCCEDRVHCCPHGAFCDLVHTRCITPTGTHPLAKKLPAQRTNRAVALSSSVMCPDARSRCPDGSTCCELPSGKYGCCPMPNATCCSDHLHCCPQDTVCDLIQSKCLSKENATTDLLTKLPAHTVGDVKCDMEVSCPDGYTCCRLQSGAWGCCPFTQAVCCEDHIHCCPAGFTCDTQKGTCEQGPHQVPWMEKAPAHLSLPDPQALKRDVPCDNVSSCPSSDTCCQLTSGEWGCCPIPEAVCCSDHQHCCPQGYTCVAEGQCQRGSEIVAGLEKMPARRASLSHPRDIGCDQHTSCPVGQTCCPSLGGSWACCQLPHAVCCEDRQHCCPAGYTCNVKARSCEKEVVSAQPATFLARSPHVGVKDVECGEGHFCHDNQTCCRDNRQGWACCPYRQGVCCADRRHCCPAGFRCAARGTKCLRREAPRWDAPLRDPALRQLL

Legend:
[1] = target: endogenous mouse sortilin (Sort1) of mouse brain lysate, mouse cortical neurons and mice in vivo (mouse) (UniProt Q6PHU5); test: GST pull-down from mouse brain lysate, anti-sortilin immunoblot
[2] = target: mouse sortilin-1 (Sort1; GenBank Accession No. NM 019972) expressed in COS-7 cells (mouse) (UniProt Q6PHU5); test: displacement of 5 nM AP-PGRN from Sort1-transfected COS-7 cells by 100 nM untagged PGRN
[3] = target: endogenous mouse sortilin (Sort1) of mouse brain lysate, mouse cortical neurons and mice in vivo (mouse) (UniProt Q6PHU5); test: displacement of 5 nM AP-PGRN from mouse E17 cortical neurons by 100 nM unlabeled PGRN, AP staining

Row | binding [1] | binding [2] | binding [3] | Substance
1 | binds | – | – | glutathione S-transferase (GST) fused to the C-terminal segment of PGRN (amino acids 495 to the end) (from UniProt P28799 495-593)
2 | – | binds | binds | unlabeled PGRN (from UniProt P28799 18-593) (ligand)
